Assay [1] deals with GST-β3 (residue 742-788) (human) (UniProt P05106). Nature of the assay: pull-down.
Assay [2] has as its target truncated cytoplasmic tail of human integrin β2 (residues 748-757), talin-binding NPxY/F region (human) (UniProt P05107). Nature of the assay: crystal structure.

Chains of the proteins cited; added tags and fusions are not shown. Lines headed by an entry give the natural chain unless they say otherwise; changes in a name come on top. A line that says so, or that is headed by a name, gives the form on record, which may keep a tag or linker. Residues count along the entry.
UniProt P05106, residues 742-788: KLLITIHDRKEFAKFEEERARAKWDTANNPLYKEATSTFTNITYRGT
UniProt P05107: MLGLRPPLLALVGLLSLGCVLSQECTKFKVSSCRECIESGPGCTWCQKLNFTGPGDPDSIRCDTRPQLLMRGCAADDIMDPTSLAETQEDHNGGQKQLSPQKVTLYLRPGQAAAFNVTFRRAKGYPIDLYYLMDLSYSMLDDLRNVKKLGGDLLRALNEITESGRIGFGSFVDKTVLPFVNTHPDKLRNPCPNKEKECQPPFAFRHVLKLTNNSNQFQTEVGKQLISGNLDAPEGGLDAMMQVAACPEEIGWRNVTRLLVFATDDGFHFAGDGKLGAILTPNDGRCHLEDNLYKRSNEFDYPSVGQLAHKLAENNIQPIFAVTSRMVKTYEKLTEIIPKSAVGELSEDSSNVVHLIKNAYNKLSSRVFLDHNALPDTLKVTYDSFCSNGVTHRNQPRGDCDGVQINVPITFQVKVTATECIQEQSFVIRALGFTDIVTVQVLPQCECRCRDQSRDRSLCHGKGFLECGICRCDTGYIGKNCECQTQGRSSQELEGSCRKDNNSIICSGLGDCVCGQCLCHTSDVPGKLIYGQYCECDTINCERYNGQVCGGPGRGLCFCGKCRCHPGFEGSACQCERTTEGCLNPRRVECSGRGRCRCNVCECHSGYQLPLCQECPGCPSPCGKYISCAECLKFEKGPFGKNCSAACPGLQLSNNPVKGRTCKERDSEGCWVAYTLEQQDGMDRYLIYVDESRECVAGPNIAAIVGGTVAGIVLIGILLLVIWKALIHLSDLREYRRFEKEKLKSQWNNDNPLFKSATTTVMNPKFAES
UniProt Q96AC1: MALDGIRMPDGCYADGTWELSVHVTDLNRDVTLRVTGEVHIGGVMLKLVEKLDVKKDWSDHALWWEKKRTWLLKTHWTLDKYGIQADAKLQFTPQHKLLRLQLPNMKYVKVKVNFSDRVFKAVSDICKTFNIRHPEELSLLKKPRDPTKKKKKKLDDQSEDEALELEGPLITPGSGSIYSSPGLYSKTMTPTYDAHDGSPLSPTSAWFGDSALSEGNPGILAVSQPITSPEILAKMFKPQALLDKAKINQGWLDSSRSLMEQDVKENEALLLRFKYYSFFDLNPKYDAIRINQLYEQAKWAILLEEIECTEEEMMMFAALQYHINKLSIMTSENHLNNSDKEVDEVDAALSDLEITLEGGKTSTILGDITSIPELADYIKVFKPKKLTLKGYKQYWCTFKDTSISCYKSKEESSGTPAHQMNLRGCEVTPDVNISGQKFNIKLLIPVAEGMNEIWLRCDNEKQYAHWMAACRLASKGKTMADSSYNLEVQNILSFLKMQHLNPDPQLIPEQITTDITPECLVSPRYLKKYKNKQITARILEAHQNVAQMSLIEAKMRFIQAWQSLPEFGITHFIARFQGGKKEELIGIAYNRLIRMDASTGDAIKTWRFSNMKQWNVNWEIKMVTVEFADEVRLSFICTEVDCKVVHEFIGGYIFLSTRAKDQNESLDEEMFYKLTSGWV
talin head domain (1-430, F1 loop deleted) K306Q of β2-THD(K306Q) (P26039, form named): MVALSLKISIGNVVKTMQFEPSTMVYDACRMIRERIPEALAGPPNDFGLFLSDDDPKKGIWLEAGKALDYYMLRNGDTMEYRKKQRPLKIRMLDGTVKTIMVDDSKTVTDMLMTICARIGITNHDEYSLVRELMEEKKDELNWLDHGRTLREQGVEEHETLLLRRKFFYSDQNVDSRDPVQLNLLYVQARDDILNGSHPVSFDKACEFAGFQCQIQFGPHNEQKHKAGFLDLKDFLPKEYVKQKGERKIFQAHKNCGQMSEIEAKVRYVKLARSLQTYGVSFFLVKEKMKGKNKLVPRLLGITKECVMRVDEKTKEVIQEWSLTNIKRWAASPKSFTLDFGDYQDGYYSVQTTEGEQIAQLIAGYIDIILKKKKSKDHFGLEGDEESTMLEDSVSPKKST
talin head domain (1-430, F1 loop deleted) K306Q/E269A/Y270A of β2-THD(QAA) (P26039, form named): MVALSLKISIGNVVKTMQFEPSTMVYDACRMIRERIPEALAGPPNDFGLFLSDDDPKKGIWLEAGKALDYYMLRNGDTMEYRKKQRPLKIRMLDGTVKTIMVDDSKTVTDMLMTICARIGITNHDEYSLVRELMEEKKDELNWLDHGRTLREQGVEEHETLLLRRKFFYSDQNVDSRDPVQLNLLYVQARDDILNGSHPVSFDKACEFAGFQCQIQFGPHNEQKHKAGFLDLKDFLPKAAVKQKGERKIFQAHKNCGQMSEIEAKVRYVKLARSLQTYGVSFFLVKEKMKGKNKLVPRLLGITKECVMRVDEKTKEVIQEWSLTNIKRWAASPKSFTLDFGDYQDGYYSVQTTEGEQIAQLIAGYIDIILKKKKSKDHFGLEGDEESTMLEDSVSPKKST
talin head protein THD405d (residues 1-405, lacking F1-loop) (P26039, form named): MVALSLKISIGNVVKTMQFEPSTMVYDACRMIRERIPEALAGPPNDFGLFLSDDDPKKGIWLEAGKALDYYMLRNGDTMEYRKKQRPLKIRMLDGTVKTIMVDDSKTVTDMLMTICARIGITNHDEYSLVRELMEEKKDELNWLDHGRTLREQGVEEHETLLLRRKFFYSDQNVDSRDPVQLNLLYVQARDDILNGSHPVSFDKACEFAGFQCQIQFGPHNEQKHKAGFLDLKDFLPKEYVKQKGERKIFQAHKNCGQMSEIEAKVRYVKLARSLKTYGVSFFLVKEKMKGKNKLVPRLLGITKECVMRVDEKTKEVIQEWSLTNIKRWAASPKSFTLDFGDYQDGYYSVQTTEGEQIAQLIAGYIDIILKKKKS

The values that follow come from article doi:10.1101/2024.05.28.596271.

No constants are given. Whether binding was seen depends on the method and setting. For some of these results: In cells and extracts the contact can be indirect. Some entries that bind do so weakly or less than the wild type.

For the substance kindlin-2 (from UniProt Q96AC1 1-680), the binding result in assay [1] is recorded as “binds”.
With “talin head domain (1-430, F1 loop deleted) K306Q of β2-THD(K306Q) (from UniProt P26039 1-430) (domain or fragment)”, the binding result in assay [2] is “binds”.
The same measure, in the same setting: the same measure for “talin head domain (1-430, F1 loop deleted) K306Q/E269A/Y270A of β2-THD(QAA) (from UniProt P26039 1-430) (domain or fragment)”: “binds”.
For the substance “talin head protein THD405d (residues 1-405, lacking F1-loop) (from UniProt P26039 1-405) (domain or fragment)”, the binding result in assay [1] was “binds”.
